Results published in publication PMC4392834.
No constants are given. Whether binding was seen depends on the method and setting. In cells and extracts the contact can be indirect. A result given as binding can be weak or reduced; the word gives no strength.

Biological target: HX-mutated HoxE (VC fusion) (Nematostella)
Test: split reporter; Venus BiFC: VC-Hox and VN-TF co-expressed in live Drosophila embryos with the corresponding Hox-Gal4 driver (abdA-Gal4 for AbdA); epidermis, stage 10-12, quantified at stage 10; affected if equal or lower than 50% of wild type, stronger if 120% or more

Binder	binding
VN-Bagpipe (protein, UniProt P22809 1-382) MLNMESAGVSAAMAGLSKSLTTPFSINDILTRSNPETRRMSSVDSEPEPEKLKPSSDRERSISKSPPLCCRDLGLYKLTQPKEIQPSARQPSNYLQYYAAAMDNNNHHHQATGTSNSSAADYMQRKLAYFGSTLAAPLDMRRCTSNDSDCDSPPPLSSSPSESPLSHDGSGLSRKKRSRAAFSHAQVFELERRFAQQRYLSGPERSEMAKSLRLTETQVKIWFQNRRYKTKRKQIQQHEAALLGASKRVPVQVLVREDGSTTYAHMAAPGAGHGLDPALINIYRHQLQLAYGGLPLPQMQMPFPYFYPQHKVPQPIPPPTQSSSFVTASSASSSPVPIPIPGAVRPQRTPCPSPNGQMMSVESGAESVHSAAEDVDENVEID	binds
VN-Empty spiracles (protein, UniProt P18488 1-494) MTKMIPPVPTAAAAVMMPTPKQKIGFSIESIVGNDVSTAGGNSTPDLSGPQSPPPGERNVPGSPPQTPPATLTLIPGSPPHHLMAPPAHGLPYPHPHAQQQHLQAPHPHPHLSPAQQHVLHQHLLMQQQHPGTPKSHQDIQELLQRLHHNAAMASGLSPLQTRLSPETEQPQMAVSLKRERSPAPPAMEQAENPAQRIQPPHTPPKSVSPQSSQPSSSPTLLISSPHATPPQQQQQQPPPNYPKPAMMHPGGAGPMMMPGMPPAGLVRPFPMGPGGPPMPQGQPGLPDIKALPPYINAPPELPPQHNPHLIAAAQFQMAAALQAGHVLGPAAAAAAAAGLPPHAAQFMPNPGMARDSYQLYPWLLSRHGRIFPHRFPGSFLVPPFRKPKRIRTAFSPSQLLKLEHAFESNQYVVGAERKALAQNLNLSETQVKVWFQNRRTKHKRMQQEDEKGGEGGSQRNMHNGSGDEDDDELIDMEMDECPSDEEHELDASH	binds
VN-Eyes absent (protein, UniProt Q05201 1-766) MVTLMPYNYAAPRCGLIDKMIEPKVKRPKTDHTDTHERNRLCNLSQQQQQQQPQQQQTHQQQQQQQQQSHQQSHSSTVLASNGPSSAGAGMGVGVGGGGGSGGGVGGGVGQCSPLGLPPQSQPLQPTIGSLASLSGHYSNGNANPNVNSSSCSLATASSFAQSAGSSFSTYQQAGGTSGGVSGEDGVVGGATVMSHWTHDGTGSSAAVKSESRSPGQVHASLDNGSVAGSNLYGCSSASNPLDGGAVAVNSSAVAAAAAAVYDGKHDYYYYNSMQQYTPPPFYSGYGTPYAAATAARQAKMEPGAAAAAAAYLTPSYAASGNNNSQLYSSPYAGYNNFGQQDYGGYYNEQYGNYYSPANYSPYAVSSPSSSASHGHGFHVAASSNLSESPTDTHSTTPVHQTTHSPHSPLPISPSTGSGIGPLGNVSAAAAAAALNSSGGSSVGTAGSGGVATSKTTPTGKTGRARGRRHQQPSPTRSTASDTGNSEAVKPPERVFVWDLDETLIIFHTLLSGSYANRYTKDHSSLMTIAFRMEEMVFNMADTHFFFNEIEECDQVHIDDVSSDDNGQDLSAYNFATDGFHTNTPPGAPPNLCLPTGVRGGVDWMRKLAFRYRKIKDIYNSYRGNVGTLLGPGKREAWLQIRSEIEVATDNWATLALKCLSMISQRENCVNVLVTSTQLAPALAKVLLFGLGGIFNIENIYSAHKIGHETCYERIVTRFGRKSTYVVIGDGNEEETAAKAMNFPFWRISAHSDIRALYTALDMGFL	binds
VN-Kn (protein, UniProt P56721 1-575) MEWGRKLYPSAVSGPRSAGGLMFGLPPTAAVDMNQPRGPMTSLKEEPLGSRWAMQPVVDQSNLGIGRAHFEKQPPSNLRKSNFFHFVIALYDRAGQPIEIERTAFIGFIEKDSESDATKTNNGIQYRLQLLYANGARQEQDIFVRLIDSVTKQAIIYEGQDKNPEMCRVLLTHEVMCSRCCDKKSCGNRNETPSDPVIIDRFFLKFFLKCNQNCLKNAGNPRDMRRFQVVISTQVAVDGPLLAISDNMFVHNNSKHGRRAKRLDTTEGTGNTSLSISGHPLAPDSTYDGLYPPLPVATPCIKAISPSEGWTTGGATVIIVGDNFFDGLQVVFGTMLVWSELITSHAIRVQTPPRHIPGVVEVTLSYKSKQFCKGSPGRFVYVSALNEPTIDYGFQRLQKLIPRHPGDPEKLQKEIILKRAADLVEALYSMPRSPGGSTGFNSYAGQLAVSVQDGSGQWTEDDYQRAQSSSVSPRGGYCSSASTPHSSGGSYGATAASAAVAATANGYAPAPNMGTLSSSPGSVFNSTSMSAVSSTWHQAFVQHHHAATAHPHHHYPHPHQPWHNPAVSAATAAAV	binds
VN-Pan (protein, UniProt P91943 1-751) MPHTHSRHGSSGDDLCSTDEVKIFKDEGDREDEKISSENLLVEEKSSLIDLTESEEKGHKISRPDHSPVFNKLDTHAPSFNMGYLVSPYSYANGSPSGLPVTMANKIGLPPFFCHNADPLSTPPPAHCGIPPYQLDPKMGLTRPALYPFAGGQYPYPMLSSDMSQVASWHTPSVYSASSFRTPYPSSLPINTTLASDFPFRFSPSLLPSVHATSHHVINAHSAIVGVSSKQECGVQDPTTNNRYPRNLEAKHTSNAQSNESKETTNDKKKPHIKKPLNAFMLYMKEMRAKVVAECTLKESAAINQILGRRWHELSREEQSKYYEKARQERQLHMELYPGWSARDNYGYVSKKKKRKKDRSTTDSGGNNMKKCRARFGLDQQSQWCKPCRRKKKCIRYMEALNGNGPAEDGSCFDEHGSQLSDDDEDDYDDDKLGGSCGSADETNKIEDEDSESLNQSMPSPGCLSGLSSLQSPSTTMSLASPLNMNANSATNVIFPASSNALLIVGADQPTAQQRPTLVSTSGSSSGSTSSISTTPNTSSTVSPVTCMTGPCLGSSQERAMMLGNRFSHLGMGLSPPVVSTSTSKSEPFFKPHPTVCNNPIFALPSIGNCSLNISSMPNTSRNPIGANPRDINNPLSINQLTKRREYKNVELIEASESKTIVAHAATSIIQHVAVNGYHANHSLLNSNLGHLHHQLNNRTENPNRSEQTMLSVSNHSVNSSECHKESDSQAIVSSNPPNAGSSDNGVISVS	binds
